In paper doi:10.1101/639948:
No constants are given. Whether binding was seen depends on the method and setting. In cells and extracts the contact can be indirect.

By UniProt entry, the sequences of proteins in these tests, tags left out.
UniProt Q8IXI2: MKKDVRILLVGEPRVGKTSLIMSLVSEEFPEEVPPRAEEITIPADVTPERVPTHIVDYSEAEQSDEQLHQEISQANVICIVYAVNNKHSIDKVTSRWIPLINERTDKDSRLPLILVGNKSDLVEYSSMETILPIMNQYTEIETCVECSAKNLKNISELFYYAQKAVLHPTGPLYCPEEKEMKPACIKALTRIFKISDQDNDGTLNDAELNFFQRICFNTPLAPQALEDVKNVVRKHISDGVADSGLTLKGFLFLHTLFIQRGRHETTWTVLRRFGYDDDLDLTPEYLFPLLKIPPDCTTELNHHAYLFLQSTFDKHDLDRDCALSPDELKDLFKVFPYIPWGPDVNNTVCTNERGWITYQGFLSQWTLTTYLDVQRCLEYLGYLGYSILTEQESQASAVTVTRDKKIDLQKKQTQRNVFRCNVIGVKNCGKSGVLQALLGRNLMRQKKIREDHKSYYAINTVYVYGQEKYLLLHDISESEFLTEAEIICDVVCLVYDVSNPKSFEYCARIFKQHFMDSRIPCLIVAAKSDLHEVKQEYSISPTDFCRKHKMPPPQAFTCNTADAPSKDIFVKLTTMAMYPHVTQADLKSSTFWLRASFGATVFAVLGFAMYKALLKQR
UniProt Q8IXI1: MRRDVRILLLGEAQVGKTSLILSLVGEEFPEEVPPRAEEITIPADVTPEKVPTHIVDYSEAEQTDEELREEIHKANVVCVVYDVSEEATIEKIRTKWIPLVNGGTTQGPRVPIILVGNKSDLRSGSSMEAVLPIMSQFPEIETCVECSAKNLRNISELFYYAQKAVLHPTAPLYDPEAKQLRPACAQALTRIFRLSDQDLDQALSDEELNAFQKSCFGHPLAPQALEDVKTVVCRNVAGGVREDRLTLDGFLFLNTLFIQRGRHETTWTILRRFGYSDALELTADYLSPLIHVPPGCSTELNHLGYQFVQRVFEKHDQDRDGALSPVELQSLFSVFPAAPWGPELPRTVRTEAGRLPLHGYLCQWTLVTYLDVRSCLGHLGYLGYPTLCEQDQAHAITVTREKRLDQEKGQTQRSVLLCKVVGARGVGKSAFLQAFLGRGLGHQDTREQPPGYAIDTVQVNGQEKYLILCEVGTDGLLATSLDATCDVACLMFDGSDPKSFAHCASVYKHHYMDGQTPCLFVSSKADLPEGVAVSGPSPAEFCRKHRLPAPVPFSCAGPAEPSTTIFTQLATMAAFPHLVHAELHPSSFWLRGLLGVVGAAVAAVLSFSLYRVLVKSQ
UniProt Q15388: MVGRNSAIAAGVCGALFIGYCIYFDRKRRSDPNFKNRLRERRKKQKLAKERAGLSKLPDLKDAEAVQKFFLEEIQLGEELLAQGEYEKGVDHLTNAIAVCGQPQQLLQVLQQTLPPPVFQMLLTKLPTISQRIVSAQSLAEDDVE

Tests used:
[1] = molecular target: GFPMiro1 (UniProt Q8IXI2); test: co-IP
[2] = molecular target: GFPMiro2 (UniProt Q8IXI1); test: co-IP

For Tom20 (from UniProt Q15388 1-145), the binding [1] was “no binding” and the binding [2] was “no binding”.
